# Measured values: the supplement of paper PMC12819154, “High-throughput peptide-centric local stability assay extends protein–ligand identification to membrane proteins, tissues and bacteria” (Nature Structural & Molecular Biology, 2025)
# Chains of the proteins cited; added tags and fusions are not shown. Lines headed by an entry give the natural chain unless they say otherwise; changes in a name come on top.
# UniProt Q9HBM0: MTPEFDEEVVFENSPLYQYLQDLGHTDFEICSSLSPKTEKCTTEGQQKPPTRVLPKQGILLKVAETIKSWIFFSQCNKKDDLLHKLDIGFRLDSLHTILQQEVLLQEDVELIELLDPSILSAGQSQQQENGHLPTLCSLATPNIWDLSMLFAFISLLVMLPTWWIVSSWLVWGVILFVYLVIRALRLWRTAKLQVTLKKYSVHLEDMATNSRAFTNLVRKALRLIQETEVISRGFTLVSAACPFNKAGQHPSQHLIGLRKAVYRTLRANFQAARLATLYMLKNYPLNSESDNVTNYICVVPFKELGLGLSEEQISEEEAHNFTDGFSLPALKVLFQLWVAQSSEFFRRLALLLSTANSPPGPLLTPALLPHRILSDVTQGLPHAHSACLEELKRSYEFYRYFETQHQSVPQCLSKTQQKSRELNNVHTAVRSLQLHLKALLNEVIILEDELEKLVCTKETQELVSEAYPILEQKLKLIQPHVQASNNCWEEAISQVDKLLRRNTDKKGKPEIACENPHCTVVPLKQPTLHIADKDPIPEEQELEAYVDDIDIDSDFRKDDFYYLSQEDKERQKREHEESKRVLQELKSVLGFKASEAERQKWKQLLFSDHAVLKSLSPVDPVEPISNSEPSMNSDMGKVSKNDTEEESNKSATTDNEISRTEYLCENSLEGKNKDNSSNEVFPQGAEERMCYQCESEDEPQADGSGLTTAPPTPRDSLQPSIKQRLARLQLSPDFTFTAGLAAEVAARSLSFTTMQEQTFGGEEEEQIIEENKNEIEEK
# UniProt Q9HB40: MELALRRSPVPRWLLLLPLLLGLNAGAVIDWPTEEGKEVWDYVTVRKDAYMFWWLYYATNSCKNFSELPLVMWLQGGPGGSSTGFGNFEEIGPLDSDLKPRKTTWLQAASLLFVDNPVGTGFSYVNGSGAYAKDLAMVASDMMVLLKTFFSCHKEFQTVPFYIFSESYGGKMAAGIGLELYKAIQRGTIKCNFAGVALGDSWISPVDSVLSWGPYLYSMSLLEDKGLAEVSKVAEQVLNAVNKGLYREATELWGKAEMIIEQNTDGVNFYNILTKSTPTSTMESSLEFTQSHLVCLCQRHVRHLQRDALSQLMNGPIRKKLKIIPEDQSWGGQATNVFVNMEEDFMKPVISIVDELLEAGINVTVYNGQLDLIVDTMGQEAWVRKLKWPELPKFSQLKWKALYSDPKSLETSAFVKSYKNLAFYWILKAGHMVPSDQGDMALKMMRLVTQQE
# UniProt Q9H334: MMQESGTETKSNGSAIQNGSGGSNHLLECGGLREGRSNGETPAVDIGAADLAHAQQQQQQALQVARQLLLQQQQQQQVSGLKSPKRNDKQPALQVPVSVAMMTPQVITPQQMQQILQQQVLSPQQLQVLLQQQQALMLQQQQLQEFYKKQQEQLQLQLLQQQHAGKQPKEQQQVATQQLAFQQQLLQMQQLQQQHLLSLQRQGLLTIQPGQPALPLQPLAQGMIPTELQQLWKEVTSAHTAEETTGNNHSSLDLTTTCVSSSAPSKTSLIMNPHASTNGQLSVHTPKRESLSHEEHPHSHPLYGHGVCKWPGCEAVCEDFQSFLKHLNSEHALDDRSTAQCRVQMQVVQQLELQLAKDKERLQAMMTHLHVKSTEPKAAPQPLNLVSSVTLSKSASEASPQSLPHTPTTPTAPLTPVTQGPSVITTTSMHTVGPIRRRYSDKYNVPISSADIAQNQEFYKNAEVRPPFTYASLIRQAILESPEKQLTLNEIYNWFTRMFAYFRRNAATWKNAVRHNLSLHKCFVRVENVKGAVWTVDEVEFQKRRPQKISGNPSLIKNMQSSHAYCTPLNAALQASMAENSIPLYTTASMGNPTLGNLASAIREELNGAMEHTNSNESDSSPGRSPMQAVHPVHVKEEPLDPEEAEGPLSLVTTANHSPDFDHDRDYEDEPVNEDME
# UniProt Q9H9R9: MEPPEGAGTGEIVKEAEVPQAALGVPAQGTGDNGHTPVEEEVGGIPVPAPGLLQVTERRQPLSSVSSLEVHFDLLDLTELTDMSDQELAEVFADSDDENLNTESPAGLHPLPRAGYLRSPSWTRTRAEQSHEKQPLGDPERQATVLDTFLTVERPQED
# UniProt Q9H4B0: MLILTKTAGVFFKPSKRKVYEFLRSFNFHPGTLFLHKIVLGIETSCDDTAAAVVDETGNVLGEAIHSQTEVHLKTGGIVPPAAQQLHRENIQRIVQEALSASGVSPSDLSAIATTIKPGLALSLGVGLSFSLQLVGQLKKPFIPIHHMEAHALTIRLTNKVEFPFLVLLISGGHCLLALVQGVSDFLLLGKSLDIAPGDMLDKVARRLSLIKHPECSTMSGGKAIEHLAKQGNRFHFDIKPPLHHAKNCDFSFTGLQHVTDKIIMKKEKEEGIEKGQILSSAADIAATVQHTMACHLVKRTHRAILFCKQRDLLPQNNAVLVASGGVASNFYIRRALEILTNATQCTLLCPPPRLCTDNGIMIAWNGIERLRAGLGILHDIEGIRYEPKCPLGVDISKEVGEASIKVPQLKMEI
# UniProt Q9H777: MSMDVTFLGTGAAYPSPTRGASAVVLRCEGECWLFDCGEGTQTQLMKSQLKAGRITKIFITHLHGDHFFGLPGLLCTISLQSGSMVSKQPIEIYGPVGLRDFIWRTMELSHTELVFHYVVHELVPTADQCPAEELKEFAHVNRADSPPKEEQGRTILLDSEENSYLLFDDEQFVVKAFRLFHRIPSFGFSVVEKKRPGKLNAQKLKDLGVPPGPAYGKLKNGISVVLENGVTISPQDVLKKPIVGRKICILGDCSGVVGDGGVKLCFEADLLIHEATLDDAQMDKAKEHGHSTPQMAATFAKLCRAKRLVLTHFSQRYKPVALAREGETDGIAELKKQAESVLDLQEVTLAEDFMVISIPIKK
# UniProt Q9H609: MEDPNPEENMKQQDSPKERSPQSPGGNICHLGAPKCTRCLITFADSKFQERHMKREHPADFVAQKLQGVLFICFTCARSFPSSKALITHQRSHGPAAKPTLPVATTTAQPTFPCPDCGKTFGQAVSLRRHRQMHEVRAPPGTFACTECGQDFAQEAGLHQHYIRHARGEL
# UniProt Q9H8T0: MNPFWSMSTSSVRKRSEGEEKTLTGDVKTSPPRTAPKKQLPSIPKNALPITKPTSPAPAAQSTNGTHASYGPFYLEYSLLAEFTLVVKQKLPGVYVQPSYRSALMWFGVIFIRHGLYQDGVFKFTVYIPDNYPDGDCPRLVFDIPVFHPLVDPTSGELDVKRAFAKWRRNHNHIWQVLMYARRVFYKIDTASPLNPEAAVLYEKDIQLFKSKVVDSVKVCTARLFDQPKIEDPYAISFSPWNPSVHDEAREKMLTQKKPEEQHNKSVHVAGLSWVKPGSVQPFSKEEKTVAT
# UniProt Q9H3P2, whole entry: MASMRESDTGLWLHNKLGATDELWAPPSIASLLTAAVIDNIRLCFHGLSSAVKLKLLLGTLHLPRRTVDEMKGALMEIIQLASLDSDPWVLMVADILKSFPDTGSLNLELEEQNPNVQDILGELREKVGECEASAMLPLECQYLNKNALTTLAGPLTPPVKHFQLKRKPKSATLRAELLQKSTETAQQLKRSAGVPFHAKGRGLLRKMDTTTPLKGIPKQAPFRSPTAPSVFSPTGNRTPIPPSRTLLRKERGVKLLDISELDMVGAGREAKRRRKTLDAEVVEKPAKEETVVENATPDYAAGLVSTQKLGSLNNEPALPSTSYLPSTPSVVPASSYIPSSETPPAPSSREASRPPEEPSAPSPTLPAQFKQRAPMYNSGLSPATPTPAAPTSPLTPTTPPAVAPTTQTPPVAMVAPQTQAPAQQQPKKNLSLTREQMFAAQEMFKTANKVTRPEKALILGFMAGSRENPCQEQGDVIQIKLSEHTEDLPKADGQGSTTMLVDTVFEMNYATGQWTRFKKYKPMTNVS
# UniProt Q9H9Q4: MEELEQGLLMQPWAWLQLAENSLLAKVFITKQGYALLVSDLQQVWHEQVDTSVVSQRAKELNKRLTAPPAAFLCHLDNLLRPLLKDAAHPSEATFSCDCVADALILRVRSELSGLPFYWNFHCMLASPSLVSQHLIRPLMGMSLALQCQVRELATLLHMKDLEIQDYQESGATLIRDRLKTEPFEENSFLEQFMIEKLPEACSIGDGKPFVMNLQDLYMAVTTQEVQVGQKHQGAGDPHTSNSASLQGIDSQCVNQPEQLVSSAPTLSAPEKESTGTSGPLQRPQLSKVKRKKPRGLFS
# UniProt Q9HCG1: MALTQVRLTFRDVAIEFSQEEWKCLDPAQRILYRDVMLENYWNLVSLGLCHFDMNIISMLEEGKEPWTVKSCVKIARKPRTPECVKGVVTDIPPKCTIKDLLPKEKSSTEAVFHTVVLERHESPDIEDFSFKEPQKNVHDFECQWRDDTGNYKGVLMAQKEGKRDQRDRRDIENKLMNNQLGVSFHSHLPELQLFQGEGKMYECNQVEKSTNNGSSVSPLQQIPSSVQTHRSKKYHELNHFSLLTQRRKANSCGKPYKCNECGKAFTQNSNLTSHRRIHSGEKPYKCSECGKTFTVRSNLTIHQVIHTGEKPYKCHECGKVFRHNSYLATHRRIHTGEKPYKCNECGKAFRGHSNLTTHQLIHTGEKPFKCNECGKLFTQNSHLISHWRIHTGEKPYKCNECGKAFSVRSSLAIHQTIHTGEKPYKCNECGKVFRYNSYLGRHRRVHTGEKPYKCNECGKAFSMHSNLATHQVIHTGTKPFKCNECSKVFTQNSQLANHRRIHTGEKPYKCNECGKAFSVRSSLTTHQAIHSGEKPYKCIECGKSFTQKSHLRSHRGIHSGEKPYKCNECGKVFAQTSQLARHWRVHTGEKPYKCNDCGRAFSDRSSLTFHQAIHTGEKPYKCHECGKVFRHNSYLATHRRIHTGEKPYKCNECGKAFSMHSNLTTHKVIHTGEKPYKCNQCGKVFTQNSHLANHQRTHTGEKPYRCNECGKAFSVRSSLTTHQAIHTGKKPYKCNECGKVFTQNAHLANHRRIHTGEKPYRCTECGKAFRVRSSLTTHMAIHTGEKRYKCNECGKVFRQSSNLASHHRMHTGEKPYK
# UniProt Q9H845: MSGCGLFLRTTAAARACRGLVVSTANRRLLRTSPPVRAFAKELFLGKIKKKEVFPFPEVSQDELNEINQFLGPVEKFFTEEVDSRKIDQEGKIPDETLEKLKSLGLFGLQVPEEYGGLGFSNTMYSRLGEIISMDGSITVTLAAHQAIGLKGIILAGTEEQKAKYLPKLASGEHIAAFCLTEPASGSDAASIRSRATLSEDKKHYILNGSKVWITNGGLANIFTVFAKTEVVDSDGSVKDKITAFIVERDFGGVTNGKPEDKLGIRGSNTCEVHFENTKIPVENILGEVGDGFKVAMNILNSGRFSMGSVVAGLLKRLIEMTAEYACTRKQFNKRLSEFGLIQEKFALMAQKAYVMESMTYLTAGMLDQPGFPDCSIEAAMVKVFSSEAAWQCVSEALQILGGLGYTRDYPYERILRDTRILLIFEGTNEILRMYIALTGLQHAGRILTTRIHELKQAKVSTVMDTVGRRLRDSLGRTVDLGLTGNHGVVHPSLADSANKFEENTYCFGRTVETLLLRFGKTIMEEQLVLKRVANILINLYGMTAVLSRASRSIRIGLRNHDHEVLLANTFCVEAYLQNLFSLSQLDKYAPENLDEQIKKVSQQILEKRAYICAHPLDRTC
# UniProt Q9H7D7: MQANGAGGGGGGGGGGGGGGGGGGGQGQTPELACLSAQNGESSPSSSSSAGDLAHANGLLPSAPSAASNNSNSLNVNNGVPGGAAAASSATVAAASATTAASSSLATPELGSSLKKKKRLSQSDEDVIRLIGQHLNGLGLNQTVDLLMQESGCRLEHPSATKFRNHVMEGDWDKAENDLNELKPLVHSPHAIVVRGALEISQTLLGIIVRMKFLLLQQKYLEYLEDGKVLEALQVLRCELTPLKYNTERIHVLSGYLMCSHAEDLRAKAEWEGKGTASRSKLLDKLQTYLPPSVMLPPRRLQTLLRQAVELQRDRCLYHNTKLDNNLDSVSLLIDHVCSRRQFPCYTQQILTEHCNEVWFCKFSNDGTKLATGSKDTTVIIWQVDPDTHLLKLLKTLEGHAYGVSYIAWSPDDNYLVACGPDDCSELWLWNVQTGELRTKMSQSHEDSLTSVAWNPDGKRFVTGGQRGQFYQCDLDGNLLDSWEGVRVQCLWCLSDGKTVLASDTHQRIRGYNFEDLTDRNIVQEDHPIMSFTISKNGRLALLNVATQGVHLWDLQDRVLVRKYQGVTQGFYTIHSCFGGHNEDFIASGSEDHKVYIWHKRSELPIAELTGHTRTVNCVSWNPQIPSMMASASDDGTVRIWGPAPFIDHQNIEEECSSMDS
# UniProt Q9H3R5: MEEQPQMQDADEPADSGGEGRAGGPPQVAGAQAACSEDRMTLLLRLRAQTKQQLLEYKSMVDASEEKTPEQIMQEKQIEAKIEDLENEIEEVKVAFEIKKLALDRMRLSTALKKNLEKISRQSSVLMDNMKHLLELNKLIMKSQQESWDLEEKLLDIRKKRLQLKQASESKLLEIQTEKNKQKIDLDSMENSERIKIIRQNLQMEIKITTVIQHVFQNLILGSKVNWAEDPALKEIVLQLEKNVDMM
# UniProt Q9H4R4: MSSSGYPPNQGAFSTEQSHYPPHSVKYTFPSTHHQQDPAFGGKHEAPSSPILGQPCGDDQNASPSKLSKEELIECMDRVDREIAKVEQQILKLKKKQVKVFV
# The list shows a part of the results. Most entries show no effect beyond the scatter of the controls.
# Compound: Cc1nc(Nc2ncc(C(=O)Nc3c(C)cccc3Cl)s2)cc(N2CCN(CCO)CC2)n1 [dasatinib]
# Assay: log2 fold change of tryptic peptide abundance, ligand vs vehicle (limited proteolysis) (log2 ratio); higher = more trypsin-susceptible (destabilized)
# Conditions: ligand concentration: 5 uM; sample: K562 cleared lysate
row,Target,log2 fold change
1,"VEZT (peptide sequence: NKDNSSNEVFPQGAEER, peptide start residue: 673) (UniProt Q9HBM0)",0.301
2,"UniProt Q9H4Q3 (peptide sequence: SRHPGQSLLAK, peptide start residue: 651)",0.067
3,"DPH5 (peptide sequence: QNGMHTLCLLDIK, peptide start residue: 154) (UniProt Q9H2P9)",-0.804
4,"RAVER2 (peptide sequence: NQTSLLGEPPKEIR, peptide start residue: 565) (UniProt Q9HCJ3)",-0.249
5,"SCPEP1 (peptide sequence: MAAGIGLELYK, peptide start residue: 172) (UniProt Q9HB40)",0.267
6,"UniProt Q9H7B2 (peptide sequence: KPYGVLYK, peptide start residue: 57)",0.258
7,"TTC12 (peptide sequence: MDADKEKDLQK, peptide start residue: 1) (UniProt Q9H892)",-0.227
8,"UniProt Q9H6K1 (peptide sequence: GLHGPYPFGQS, peptide start residue: 288)",-0.08
9,"FOXP1 (peptide sequence: QQEQLQLQLLQQQHAGKQPK, peptide start residue: 150) (UniProt Q9H334)",0.504
10,"UniProt Q9H6V9 (peptide sequence: DDETIKEHLCK, peptide start residue: 252)",-0.432
11,"DBNDD1 (peptide sequence: AEQSHEKQPLGDPER, peptide start residue: 127) (UniProt Q9H9R9)",0.059
12,"OSGEPL1 (peptide sequence: HPECSTMSGGK, peptide start residue: 213) (UniProt Q9H4B0)",-0.271
13,"SPC25 (peptide sequence: KTNNFSAFLANVRK, peptide start residue: 203) (UniProt Q9HBM1)",0.194
14,"WDR13 (peptide sequence: TTLDRMEDFEDDPR, peptide start residue: 88) (UniProt Q9H1Z4)",-0.479
15,"CHMP4B (peptide sequence: KQEFLEKK, peptide start residue: 39) (UniProt Q9H444)",-0.293
16,"DHX36 (peptide sequence: SSGGGYGGGPAGGHGGNR, peptide start residue: 17) (UniProt Q9H2U1)",-0.29
17,"UniProt Q9H8E8 (peptide sequence: NPVESAMELK, peptide start residue: 250)",0.465
18,"GPBP1L1 (peptide sequence: HWNGSFHSR, peptide start residue: 119) (UniProt Q9HC44)",-0.264
19,"PATZ1 (peptide sequence: KANLLDSMFGSPGGLR, peptide start residue: 272) (UniProt Q9HBE1)",-0.0368

row,Target,log2 fold change
1,"UniProt Q9H611 (peptide sequence: RPVEPQAGAEPSTEAPR, peptide start residue: 174)",0.102
2,"BRD9 (peptide sequence: VEVEPPPDRPVR, peptide start residue: 116) (UniProt Q9H8M2)",-0.74
3,"ELAC1 (peptide sequence: DLGVPPGPAYGK, peptide start residue: 207) (UniProt Q9H777)",0.341
4,"ZNF576 (peptide sequence: EHPADFVAQK, peptide start residue: 56) (UniProt Q9H609)",0.0482
5,"NMNAT1 (peptide sequence: NAGVILAPLQR, peptide start residue: 262) (UniProt Q9HAN9)",-0.187
6,"AKTIP (peptide sequence: SVHVAGLSWVKPGSVQPFSKEEK, peptide start residue: 266) (UniProt Q9H8T0)",0.171
7,"UniProt Q9H3P2 (peptide sequence: YKPMTNVS, peptide start residue: 521)",0.159
8,"NHEJ1 (peptide sequence: ELATLLHMK, peptide start residue: 152) (UniProt Q9H9Q4)",-0.0606
9,"UniProt Q9HCG1 (peptide sequence: YHELNHFSLLTQR, peptide start residue: 235)",-0.21
10,"ACAD9 (peptide sequence: FSMGSVVAGLLKR, peptide start residue: 305) (UniProt Q9H845)",-0.528
11,"UniProt Q9H8N7 (peptide sequence: DQWCTACR, peptide start residue: 496)",-0.24
12,"UniProt Q9HCE7 (peptide sequence: FVESPSQDQR, peptide start residue: 197)",0.35
13,"UniProt Q9H974 (peptide sequence: SLLFLDNCLR, peptide start residue: 167)",-0.349
14,"WDR26 (peptide sequence: AKAEWEGK, peptide start residue: 267) (UniProt Q9H7D7)",0.226
15,"CENPH (peptide sequence: QSSVLMDNMK, peptide start residue: 122) (UniProt Q9H3R5)",0.0771
16,"C12orf65 (peptide sequence: VDVFYNGENSPVHKEK, peptide start residue: 116) (UniProt Q9H3J6)",0.216
17,"RNPEP (peptide sequence: ASGEHSPGSGAAR, peptide start residue: 2) (UniProt Q9H4A4)",0.0774
18,"RRAGC (peptide sequence: ALTHNGTPR, peptide start residue: 388) (UniProt Q9HB90)",-0.0493
19,"UniProt Q9H4R4 (peptide sequence: EIAKVEQQILK, peptide start residue: 191)",0.0403

# Two consecutive records from above, quoted:
row,Target,log2 fold change
11,"UniProt Q9H8N7 (peptide sequence: DQWCTACR, peptide start residue: 496)",-0.24
12,"UniProt Q9HCE7 (peptide sequence: FVESPSQDQR, peptide start residue: 197)",0.35
